# Laboratory results reported in PubChem BioAssay AID463183 (Sanford-Burnham Center for Chemical Genomics, 2010).
# The list shows a part of the results. These are further read-outs of the screen, such as a control signal, another cell line or another target. No call is given for them. Compounds called inactive in the main read-out are mostly missing here.
# Assay: blockers of oleate-driven lipid droplets in liver cells – imaging, AML12 mouse hepatocytes, single concentration, high-content, confirmation (AID 463183);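 note: cells counted after overnight compound exposure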
# Conditions: BODIPY lipid droplet imaging, measured here: cell count, cytotoxicity, at 5.2 µM, droplets induced with 100 µM oleic acid
row,Compound,cell count [cells]
1,O=C(/C=C/c1ccc(Cl)cc1)NC(=S)Nc1ccc(NC(=O)c2ccco2)cc1,1420
2,CCN(Cc1ccccc1)C(=O)C1CCN(C(=O)Nc2ccccc2)CC1,1550
3,Cc1cccc(NC(=O)c2cccc(OC(=S)N3CCOCC3)c2)c1,1560
4,CCCOc1ccc(C2=NNC(c3cccs3)=Nc3ccc(OC)cc32)cc1,1640
5,CCOc1ccc(C(=O)Nc2ccc(NC(=S)NC(=O)CC)cc2)cc1Cl,1570
6,Cn1nc(C(F)(F)F)c(-c2cccc(C(F)(F)F)c2)c1NC(=O)Nc1ccc(F)cc1,1630
7,CCOc1ccc(CCNC(=O)C2CCN(S(=O)(=O)N3CC(C)CC(C)C3)CC2)cc1OCC (configuration not stated),1550
8,COc1ccc(OC)c(NC(=O)CCCNC(=O)c2ccc(Cl)cc2)c1,1660
9,CCCCCCCNC(=O)C1(CC2CC(c3ccc(Cl)cc3)=NO2)CCN(C(=O)c2cc(OCC)c(OCC)c(OCC)c2)CC1 (configuration not stated),1550
10,Cc1noc(C)c1C(=O)Nc1ccc(F)cc1F,1600
11,COc1ccc(C)cc1NC(=O)Nc1ccc(C(=O)N2CCCC2)cc1,1570
12,Cc1cc(N(CCO)CCO)ccc1N=Nc1cc(F)ccc1F,1550
13,CCS(=O)(=O)N1CCN(c2ccc([N+](=O)[O-])c(NCc3cccnc3)c2)CC1,1620
14,CCOC(=O)c1ccc(NC(=O)CCOc2ccc(C)cc2)cc1,1630
15,CC(=O)c1ccc(Nc2nc(=O)c3cccnc3s2)cc1,1630
16,COCc1ccc(C(=O)NC2CCCc3c2cnn3-c2ccc(C)c(C)c2)o1 (configuration not stated),1510
17,CCOC(=O)/C(C(=O)Nc1ccccc1Cl)=C1/NC(C)(C)Cc2ccccc21,1530

# A second format for part of the listing above.
row | Compound | cell count [cells]
5 | CCOc1ccc(C(=O)Nc2ccc(NC(=S)NC(=O)CC)cc2)cc1Cl | 1570
6 | Cn1nc(C(F)(F)F)c(-c2cccc(C(F)(F)F)c2)c1NC(=O)Nc1ccc(F)cc1 | 1630
